Data on one molecule can be found in US20200291121A1.

By UniProt entry, the sequences of proteins in these tests, tags left out. Where a name states a change or a piece, a line headed by the entry shows the natural chain unless it says otherwise. Chains listed by the source or under a name are the forms on record and can include a tag or linker.
cynomolgus monkey IL-5Rα, recombinant extracellular domain (C3VEW9, form named): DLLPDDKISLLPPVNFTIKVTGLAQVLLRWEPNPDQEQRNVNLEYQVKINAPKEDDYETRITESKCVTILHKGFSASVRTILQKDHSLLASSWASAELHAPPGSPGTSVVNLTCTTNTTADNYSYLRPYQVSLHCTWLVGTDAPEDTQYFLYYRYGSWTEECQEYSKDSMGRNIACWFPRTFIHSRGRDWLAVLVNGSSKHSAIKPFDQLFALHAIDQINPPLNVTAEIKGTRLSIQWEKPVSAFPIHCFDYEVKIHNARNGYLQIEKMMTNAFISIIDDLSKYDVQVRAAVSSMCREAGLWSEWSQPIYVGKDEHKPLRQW

These are yes or no findings as the source states them, for the method shown. Some binding calls cover weakened binding; strength is not graded here.

The target of this experiment is cynomolgus monkey IL-5Rα, recombinant extracellular domain (cynomolgus monkey) (UniProt C3VEW9). In words: BLI (Octet RED 384), antibody immobilised on AR2G sensors. For orientation: BLI is a label-free optical method that tracks binding on a fibre tip over time.

B1: BCD133-03-021 (antibody, human IgG1, kappa, V domains shown)
VH: QVQLQESGGGLVQPGGSLRLSCAASGFTFSNYAMSWVRQAPGKGLEWVSAINSGGKSTNYADSVKGRFTISRDNAKNTLYLQMNSLRAEDTAVYYCADYATNYGVPYFGSWGQGTMVTVSS
VL: QSVLTQPPSVSAAPGQRVTISCSGSRSNIGSGYDVHWYQQLPGTAPKLLIYDDNNRPSGVPDRFSGSKSGTSASLAITGLQAEDEADYYCQSYDSSLSGHVVFGGGTKLTVLR
With B1, the binding result was “binds”.
